# Results are given in words; binding and its absence hold for the method and conditions named. Binding seen in cells or lysates may run through a third protein. These calls come from enrichment with a bait or labelling near it, and not all partners need be listed. For some assays here: A no says only that the protein was not detected with the bait. Tags and fused reporters may be left off the sequences shown.
# The chains behind the UniProt entries cited, without tags or fusion partners. Where a name states a change or a piece, a line headed by the entry shows the natural chain unless it says otherwise.
# UniProt F4KBK4: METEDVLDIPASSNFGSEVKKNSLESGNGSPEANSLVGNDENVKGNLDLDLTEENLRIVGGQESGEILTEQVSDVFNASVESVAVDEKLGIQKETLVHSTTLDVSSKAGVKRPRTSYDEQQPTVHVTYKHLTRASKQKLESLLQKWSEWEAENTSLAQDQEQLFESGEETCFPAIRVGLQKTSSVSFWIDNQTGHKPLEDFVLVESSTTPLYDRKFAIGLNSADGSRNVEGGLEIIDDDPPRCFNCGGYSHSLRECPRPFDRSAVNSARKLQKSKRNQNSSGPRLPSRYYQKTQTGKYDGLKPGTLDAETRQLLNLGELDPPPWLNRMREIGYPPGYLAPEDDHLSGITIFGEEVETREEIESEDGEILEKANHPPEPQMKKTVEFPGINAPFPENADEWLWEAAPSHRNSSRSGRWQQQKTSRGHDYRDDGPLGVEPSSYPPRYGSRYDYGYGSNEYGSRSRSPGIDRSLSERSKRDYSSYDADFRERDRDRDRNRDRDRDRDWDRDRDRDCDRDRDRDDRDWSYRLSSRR
# UniProt Q9ZUI4: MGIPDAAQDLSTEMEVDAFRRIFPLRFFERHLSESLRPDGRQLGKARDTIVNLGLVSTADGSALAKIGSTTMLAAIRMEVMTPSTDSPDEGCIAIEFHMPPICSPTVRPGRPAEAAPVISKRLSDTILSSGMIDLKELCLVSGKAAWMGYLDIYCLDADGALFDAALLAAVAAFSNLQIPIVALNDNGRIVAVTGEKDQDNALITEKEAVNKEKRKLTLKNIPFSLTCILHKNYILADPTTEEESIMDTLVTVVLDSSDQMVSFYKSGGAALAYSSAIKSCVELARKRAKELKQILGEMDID
# UniProt F4JFM9: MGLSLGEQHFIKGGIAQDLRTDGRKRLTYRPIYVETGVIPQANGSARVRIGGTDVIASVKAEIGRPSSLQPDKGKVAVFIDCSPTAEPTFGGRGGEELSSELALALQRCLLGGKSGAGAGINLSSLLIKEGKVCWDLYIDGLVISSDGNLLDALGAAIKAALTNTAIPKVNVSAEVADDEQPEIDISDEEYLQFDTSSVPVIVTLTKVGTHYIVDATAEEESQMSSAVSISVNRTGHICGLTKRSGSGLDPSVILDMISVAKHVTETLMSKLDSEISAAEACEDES
# UniProt F4JLJ9: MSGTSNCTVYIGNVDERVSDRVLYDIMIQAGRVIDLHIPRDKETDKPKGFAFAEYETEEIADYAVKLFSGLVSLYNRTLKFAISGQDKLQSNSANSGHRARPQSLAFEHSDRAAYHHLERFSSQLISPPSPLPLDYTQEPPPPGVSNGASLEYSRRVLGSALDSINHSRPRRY
# T1: HEN2-GFP (Arabidopsis thaliana) (UniProt Q9ZVW2)
# T1 sequence: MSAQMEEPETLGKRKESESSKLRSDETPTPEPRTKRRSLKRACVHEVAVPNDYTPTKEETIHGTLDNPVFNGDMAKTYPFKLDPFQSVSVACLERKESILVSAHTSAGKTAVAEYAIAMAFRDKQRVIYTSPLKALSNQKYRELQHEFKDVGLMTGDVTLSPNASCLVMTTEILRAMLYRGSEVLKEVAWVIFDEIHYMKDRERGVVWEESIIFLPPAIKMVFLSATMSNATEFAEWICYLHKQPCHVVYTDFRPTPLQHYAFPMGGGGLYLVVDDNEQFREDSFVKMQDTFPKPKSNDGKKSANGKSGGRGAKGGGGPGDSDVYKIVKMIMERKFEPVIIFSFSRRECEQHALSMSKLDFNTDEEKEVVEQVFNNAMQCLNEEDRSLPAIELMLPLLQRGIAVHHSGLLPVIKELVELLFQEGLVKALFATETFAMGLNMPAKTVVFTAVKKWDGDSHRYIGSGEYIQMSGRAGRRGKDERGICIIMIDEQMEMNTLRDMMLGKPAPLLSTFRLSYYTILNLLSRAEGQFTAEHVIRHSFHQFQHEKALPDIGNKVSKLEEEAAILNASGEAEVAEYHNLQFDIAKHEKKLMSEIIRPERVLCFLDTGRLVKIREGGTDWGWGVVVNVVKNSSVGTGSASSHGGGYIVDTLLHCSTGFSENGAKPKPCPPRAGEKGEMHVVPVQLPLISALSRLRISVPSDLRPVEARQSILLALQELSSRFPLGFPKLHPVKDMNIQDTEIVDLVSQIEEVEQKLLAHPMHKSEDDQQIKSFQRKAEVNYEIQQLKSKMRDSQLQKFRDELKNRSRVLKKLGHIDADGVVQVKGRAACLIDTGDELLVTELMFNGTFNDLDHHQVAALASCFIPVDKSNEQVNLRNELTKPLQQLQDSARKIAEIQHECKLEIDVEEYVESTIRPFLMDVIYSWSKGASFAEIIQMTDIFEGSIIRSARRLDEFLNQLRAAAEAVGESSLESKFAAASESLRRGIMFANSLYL
# T2: AtMTR4-GFP (Arabidopsis thaliana) (UniProt Q9XIF2)
# T2 sequence: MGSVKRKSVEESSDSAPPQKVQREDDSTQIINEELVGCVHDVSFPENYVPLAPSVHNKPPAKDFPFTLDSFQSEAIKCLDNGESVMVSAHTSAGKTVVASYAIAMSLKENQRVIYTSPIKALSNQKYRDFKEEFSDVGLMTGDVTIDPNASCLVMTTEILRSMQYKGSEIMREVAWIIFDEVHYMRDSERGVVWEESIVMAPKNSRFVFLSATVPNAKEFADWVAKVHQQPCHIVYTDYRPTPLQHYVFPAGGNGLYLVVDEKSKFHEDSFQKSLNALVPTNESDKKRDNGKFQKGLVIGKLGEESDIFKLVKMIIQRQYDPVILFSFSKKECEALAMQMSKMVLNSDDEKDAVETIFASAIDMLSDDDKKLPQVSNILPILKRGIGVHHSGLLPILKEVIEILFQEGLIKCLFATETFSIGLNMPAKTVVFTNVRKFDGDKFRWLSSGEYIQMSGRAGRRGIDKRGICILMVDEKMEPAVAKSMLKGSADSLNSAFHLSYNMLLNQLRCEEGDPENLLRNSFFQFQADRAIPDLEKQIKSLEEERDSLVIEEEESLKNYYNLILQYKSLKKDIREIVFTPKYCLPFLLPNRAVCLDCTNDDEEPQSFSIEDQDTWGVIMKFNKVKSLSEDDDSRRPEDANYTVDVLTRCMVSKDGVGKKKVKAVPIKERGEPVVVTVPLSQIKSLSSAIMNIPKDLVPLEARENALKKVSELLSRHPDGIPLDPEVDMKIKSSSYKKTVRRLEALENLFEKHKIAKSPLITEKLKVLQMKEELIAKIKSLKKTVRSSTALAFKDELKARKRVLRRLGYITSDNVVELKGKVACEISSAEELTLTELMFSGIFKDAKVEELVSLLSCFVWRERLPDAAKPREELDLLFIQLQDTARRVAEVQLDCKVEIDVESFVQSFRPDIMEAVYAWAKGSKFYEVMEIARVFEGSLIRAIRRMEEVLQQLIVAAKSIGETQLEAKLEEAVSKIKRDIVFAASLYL
# Tests used:
# [1] = biological target: T1, HEN2-GFP (Arabidopsis thaliana); experiment: affinity purification with mass spectrometry; HEN2-GFP (hen2 background) extracted from flowers, held on anti-GFP magnetic microparticles (MACS), 50 mM NaCl; LC-MS/MS; duplicates crossed, proteins of mock IPs excluded
# [2] = biological target: T1, HEN2-GFP (Arabidopsis thaliana); experiment: affinity purification with mass spectrometry; HEN2-GFP (hen2 background) extracted from flowers, held on anti-GFP magnetic microparticles (MACS), 150 mM NaCl; LC-MS/MS; duplicates crossed, proteins of mock IPs excluded
# [3] = biological target: T2, AtMTR4-GFP (Arabidopsis thaliana); experiment: affinity purification with mass spectrometry; AtMTR4-GFP (own promoter, mtr4 background) extracted from flowers, held on anti-GFP magnetic microparticles (MACS), SDS omitted from washing buffers; LC-MS/MS; triplicates crossed, proteins of mock IPs excluded
# [4] = biological target: T1, HEN2-GFP (Arabidopsis thaliana); experiment: affinity purification with mass spectrometry; HEN2-GFP (hen2 background) extracted from flowers, held on anti-GFP magnetic microparticles (MACS), 150 mM NaCl; LC-MS/MS; duplicates crossed, proteins of mock IPs excluded; remark: listed apart in the source
Molecule,binding [1],binding [2],binding [3],binding [4]
RRP40,binds,no binding (only 150 mM NaCl),binds,
ZCCHC8 homologue (AT5G38600) (from UniProt F4KBK4),binds,binds,,
RRP43 (from UniProt Q9ZUI4),binds,no binding (only 150 mM NaCl),binds,
"MAGO (protein, UniProt O23676 1-150) MAAEEATEFYLRYYVGHKGKFGHEFLEFEFREDGKLRYANNSNYKNDTIIRKEVFLTPAVLKECKRIVSESEILKEDDNNWPEPDRVGKQELEIVLGNEHISFATSKIGSLVDCQSSNDPEGLRIFYYLVQDLKCLVFSLISLHFKIKPI",binds,,,
"RRP4 (protein, UniProt Q9ZVT7 1-322) MVMRKLQLPLSQTQKVRFERAIERLQSLSSSANSDASVIVTDSIPVNHDDAFLKGHGTSEVDGELLATVCGVVERVDKLVYVRTLRARYKPEVGDIVVGRVIEVAQKRWRVELNFNQDGVLMLSSMNMPDGIQRRRTSVDELNMRNIFVEHDVVCAEVRNFQHDGSLQLQARSQKYGKLEKGQLLKVDPYLVKRSKHHFHYVESLGIDLIIGCNGFIWVGEHVEVRDPMAIDDQKDEEMISSSSTGKEQSHIPLETRQTICRIGNAIRVLSNLGFTVTLEVIMETVNLSNSKNIDIHDMLGSEFHVVVAENEAERRRTKRKK",binds,,binds,no binding (only 150 mM NaCl)
"CBP20 (protein, UniProt Q9XFD1 1-257) MASLFKEQAKLSAYRDRRFSGTQEEFDEALRASTTVYIGNVSFYTTEEQLYELFSRAGEIKKIIMGLDKNTKTPCGFCFVLFYSREDTEDAVKYISGTILDDRPIRVDFDWGFQEGRQWGRGRSGGQVRDEYRTDYDPARGGYGKLVQKELEAQRQLVDYGTGSLGAYPQAAPTNYGNGRRGGGNYGQGGQNRHGRGDYHRKRQRDDDRYGRDNSRRNTDHESRRDTDSDMRPEKNPRFRESGDSDDDGEDDRKRRS",binds,,,
"RRP46 (protein, UniProt Q9LX74 1-239) MEIDREDGRTPNQLRPLACSRNILHRPHGSASWSQGDTKVLAAVYGPKAGTKKNENAEKACFEVIWKPKSGQIGKVEKEYEMILKRTIQSICVLTVNPNTTTSVIIQVVHDDGSLLPCAINAACAALVDAGIPMKHLAVAICCCLAENGYLVLDPNKLEEKKMTAFAYLVFPNTTLSVLPEGSSVAEGEPVEHGIITSITHGVMSVDDYFLCVENGRAATASLSAFFRKNFQQSSSKAG",binds,,binds,no binding (only 150 mM NaCl)

# Next, values leading:
binding [1],binding [2],binding [3],binding [4],Molecule
binds,no binding (only 150 mM NaCl),binds,,CSL4
binds,no binding (only 150 mM NaCl),binds,,RRP42 (from UniProt F4JFM9)
binds,binds,,,RBM7 homologue (AT4G10110) (from UniProt F4JLJ9)
binds,binds,,,ZCCHC8 homologue (AT1G67210)
binds,,binds,no binding (only 150 mM NaCl),"RRP41 (protein, UniProt Q9SP08 1-241) MEYVNPEGLRLDGRRFNEMRQIVAEVGVVSKADGSAVFEMGNTKVIAAVYGPREIQNKSQQKKNDHAVVLCEYSMAQFSTGDRRRQKFDRRSTELSLVIRQTMEACILTELMPHSQIDIFLQVLQADGGTRSACINAATLALADAGIPMRDLAVSCSAGYLNSTPLLDLNYVEDSAGGADVTVGILPKLDKVSLLQMDAKLPMETFETVFALASEGCKAIAERIREVLQENTKQLEYRRAA"
binds,,binds,no binding (only 150 mM NaCl),"MTR3 (protein, UniProt A2RVK7 1-256) MAAKPGAATPTYSPKIVGRSRLPIFKDSDLDWSRPDGRGFHQCRPALLQTGAVSSASGSAYAEFGNTKVIVSVFGPRESKKAMVYSDVGRLNCNVSYTNFASPTLGQGTDHKEYSSMLHKALEGVIMMETFPKTTVDVFALVLESGGSDLSVLISCASLALADAGIMMYDLITAVSVSCIGKSLMIDPVTEEEGCEDGSFMMTCMPSRYEITQLTITGEWTTPNINEAMQLCLDASSKLGEIMRDCLKQSASASDE"

# From PMC4140647
